The other results are listed elsewhere or left out.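 The calls were made as follows: active = dose-dependent thermal stabilisation significant by F-test of dose-response against flat model at 10% FDR; inactive = not significant.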
What follows are targets tested with Nc1nc2c(ncn2[C@@H]2O[C@H](COP(=O)(O)OP(=O)(O)OP(=O)(O)O)[C@@H](O)[C@H]2O)c(=O)[nH]1 (assay: dose-dependent thermal stabilisation call (2D-TPP, DLPTP, 10% FDR) (binary (1 = stabilised)); higher = stabilised by the compound). Settings: system: Jurkat gel-filtered lysate; concentration range 1-500 µM.

By UniProt entry, the sequences of proteins in these tests, tags left out. Where a name states a change or a piece, a line headed by the entry shows the natural chain unless it says otherwise.
UniProt O14593: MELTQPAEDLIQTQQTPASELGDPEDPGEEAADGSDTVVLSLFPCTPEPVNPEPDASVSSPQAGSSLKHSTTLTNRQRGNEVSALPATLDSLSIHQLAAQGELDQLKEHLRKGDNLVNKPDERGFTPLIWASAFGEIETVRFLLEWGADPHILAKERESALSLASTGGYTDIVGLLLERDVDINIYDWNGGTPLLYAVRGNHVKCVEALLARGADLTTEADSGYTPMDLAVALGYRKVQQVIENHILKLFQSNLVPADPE
UniProt Q96KG9: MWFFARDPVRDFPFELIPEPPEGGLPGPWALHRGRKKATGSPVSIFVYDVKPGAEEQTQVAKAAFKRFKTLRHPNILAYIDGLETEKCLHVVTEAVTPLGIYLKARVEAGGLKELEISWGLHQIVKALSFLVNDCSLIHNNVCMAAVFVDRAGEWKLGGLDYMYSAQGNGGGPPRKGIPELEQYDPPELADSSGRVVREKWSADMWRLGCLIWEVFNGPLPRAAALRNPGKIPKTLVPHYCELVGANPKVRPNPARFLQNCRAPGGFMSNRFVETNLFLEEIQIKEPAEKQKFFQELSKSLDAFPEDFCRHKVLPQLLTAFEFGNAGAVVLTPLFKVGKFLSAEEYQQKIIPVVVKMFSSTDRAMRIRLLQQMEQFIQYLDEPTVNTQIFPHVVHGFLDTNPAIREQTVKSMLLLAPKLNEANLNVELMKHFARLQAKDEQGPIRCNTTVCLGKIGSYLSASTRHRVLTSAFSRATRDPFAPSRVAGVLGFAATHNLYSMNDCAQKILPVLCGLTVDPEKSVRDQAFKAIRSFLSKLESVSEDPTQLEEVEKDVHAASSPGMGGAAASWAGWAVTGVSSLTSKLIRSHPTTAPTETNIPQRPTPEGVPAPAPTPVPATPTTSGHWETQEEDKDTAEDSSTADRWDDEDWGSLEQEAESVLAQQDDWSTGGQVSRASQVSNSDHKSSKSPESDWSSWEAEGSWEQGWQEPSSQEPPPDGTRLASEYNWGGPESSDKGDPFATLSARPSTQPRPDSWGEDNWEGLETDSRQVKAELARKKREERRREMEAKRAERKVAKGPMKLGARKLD
UniProt Q13546: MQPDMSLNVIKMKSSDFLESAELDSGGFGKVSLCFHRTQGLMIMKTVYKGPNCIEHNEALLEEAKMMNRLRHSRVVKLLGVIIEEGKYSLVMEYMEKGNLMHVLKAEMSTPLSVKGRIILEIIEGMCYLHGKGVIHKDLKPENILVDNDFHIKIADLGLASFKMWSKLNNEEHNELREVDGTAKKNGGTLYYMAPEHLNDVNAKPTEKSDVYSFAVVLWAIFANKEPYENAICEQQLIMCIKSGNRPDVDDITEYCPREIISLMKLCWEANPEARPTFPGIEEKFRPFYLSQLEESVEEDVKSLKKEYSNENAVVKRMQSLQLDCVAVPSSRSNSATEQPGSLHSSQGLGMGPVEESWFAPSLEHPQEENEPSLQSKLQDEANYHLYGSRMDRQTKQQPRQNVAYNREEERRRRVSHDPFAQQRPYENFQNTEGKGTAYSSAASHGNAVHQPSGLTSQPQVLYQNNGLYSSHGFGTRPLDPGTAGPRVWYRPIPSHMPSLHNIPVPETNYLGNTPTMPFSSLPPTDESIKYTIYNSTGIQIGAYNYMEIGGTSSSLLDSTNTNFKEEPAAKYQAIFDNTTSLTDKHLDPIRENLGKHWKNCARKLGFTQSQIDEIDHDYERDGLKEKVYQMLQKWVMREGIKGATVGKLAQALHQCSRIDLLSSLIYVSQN
UniProt P84101: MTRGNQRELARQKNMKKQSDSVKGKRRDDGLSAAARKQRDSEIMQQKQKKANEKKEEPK
UniProt Q14151: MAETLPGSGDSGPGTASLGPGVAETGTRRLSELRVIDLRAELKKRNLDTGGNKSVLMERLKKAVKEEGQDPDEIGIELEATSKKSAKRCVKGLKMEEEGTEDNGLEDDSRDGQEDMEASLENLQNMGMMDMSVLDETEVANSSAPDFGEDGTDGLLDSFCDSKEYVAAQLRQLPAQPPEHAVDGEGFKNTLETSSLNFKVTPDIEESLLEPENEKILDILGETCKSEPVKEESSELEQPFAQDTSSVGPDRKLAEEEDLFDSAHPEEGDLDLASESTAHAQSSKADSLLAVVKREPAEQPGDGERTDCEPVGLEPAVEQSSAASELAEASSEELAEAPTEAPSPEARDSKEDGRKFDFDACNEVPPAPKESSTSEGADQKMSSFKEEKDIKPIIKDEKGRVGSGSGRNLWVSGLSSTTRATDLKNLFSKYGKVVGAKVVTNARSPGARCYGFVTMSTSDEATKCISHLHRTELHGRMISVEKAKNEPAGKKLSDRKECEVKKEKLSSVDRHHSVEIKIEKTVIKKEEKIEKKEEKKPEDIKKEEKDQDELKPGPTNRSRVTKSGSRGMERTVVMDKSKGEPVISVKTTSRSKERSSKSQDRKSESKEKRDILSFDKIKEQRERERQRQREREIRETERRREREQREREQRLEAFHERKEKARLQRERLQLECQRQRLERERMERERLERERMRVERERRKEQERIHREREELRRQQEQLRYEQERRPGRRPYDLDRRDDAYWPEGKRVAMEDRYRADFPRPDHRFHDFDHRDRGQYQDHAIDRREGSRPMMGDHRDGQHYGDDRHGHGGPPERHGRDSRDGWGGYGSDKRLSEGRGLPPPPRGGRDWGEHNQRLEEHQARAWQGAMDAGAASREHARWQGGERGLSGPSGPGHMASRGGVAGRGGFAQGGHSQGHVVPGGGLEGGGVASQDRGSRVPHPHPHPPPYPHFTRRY
UniProt Q15436: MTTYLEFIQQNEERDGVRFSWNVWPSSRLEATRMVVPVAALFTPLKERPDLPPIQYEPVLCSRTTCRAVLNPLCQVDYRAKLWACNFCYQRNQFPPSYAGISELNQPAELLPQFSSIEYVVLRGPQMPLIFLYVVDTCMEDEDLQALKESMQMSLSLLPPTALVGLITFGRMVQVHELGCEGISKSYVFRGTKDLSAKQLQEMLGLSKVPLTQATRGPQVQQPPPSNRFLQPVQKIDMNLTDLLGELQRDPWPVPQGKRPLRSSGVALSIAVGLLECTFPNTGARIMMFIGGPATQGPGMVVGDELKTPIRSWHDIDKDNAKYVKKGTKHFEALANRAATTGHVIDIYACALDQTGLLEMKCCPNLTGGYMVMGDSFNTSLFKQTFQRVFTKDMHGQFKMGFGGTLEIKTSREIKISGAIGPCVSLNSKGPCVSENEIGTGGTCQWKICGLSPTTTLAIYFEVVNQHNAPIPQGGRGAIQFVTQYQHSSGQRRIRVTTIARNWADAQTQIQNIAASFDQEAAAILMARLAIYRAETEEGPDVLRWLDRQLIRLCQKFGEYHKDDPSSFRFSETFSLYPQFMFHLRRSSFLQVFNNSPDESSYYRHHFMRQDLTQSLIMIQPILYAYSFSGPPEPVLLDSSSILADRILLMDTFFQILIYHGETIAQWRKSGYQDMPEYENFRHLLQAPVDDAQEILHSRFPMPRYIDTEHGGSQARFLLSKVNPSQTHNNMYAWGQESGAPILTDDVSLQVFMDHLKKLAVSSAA
UniProt Q9UBF6, whole entry: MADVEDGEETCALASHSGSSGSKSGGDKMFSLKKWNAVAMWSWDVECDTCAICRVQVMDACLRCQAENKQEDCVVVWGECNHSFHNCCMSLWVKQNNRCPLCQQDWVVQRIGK
UniProt Q9BWJ5: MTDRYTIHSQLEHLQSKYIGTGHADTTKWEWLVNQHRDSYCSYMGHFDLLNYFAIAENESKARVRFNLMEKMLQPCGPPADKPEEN
UniProt Q6PCB5: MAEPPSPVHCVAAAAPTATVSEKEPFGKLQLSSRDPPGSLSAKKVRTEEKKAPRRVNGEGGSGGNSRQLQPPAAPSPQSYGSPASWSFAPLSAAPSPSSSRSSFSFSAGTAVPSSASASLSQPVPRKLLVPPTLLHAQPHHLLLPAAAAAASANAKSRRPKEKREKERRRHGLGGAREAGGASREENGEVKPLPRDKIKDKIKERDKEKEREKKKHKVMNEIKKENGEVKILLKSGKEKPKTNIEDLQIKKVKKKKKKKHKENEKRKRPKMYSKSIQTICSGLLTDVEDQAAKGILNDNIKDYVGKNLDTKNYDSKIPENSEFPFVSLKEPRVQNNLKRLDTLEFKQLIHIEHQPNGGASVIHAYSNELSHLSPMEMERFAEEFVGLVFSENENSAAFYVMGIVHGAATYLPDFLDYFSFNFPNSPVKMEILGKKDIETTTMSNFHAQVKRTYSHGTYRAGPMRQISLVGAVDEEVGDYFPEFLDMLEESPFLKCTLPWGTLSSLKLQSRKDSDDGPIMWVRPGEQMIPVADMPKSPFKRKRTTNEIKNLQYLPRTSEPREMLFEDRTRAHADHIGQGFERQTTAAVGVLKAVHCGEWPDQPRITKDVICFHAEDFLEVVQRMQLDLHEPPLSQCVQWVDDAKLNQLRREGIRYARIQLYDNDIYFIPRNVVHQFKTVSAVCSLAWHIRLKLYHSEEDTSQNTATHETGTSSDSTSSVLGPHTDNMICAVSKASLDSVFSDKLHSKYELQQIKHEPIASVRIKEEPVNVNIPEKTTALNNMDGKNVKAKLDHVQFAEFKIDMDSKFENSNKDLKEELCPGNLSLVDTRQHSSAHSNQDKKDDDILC
UniProt Q12765: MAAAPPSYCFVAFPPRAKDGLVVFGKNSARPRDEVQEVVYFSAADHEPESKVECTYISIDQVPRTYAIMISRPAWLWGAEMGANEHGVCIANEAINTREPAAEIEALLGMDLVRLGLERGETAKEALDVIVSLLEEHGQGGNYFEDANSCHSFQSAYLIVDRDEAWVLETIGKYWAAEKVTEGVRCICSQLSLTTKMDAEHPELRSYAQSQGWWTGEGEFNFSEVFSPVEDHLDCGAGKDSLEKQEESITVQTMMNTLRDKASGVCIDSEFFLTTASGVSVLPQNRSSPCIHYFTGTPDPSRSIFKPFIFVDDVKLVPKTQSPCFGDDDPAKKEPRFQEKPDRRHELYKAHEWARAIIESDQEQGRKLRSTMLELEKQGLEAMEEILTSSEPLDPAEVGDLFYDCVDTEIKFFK
UniProt Q9BV68: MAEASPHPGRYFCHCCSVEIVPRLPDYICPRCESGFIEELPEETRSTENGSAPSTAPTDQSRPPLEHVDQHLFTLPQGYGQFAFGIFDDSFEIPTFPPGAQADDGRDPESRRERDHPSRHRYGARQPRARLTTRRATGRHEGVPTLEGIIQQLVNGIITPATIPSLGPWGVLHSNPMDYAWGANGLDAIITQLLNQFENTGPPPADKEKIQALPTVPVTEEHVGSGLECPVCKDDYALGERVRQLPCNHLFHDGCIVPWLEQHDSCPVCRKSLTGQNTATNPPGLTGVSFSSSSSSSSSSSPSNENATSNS
UniProt Q14141: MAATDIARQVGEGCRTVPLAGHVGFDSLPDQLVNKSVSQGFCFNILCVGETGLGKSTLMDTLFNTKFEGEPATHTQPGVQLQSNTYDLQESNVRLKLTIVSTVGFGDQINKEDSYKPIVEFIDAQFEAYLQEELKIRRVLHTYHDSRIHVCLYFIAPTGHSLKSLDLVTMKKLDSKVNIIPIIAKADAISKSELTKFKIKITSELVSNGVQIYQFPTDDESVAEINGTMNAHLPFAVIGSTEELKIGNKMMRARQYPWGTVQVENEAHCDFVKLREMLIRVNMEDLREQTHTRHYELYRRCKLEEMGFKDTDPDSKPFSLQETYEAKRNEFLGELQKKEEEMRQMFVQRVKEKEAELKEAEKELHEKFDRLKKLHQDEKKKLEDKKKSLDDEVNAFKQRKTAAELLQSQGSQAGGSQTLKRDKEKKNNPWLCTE
UniProt Q15437: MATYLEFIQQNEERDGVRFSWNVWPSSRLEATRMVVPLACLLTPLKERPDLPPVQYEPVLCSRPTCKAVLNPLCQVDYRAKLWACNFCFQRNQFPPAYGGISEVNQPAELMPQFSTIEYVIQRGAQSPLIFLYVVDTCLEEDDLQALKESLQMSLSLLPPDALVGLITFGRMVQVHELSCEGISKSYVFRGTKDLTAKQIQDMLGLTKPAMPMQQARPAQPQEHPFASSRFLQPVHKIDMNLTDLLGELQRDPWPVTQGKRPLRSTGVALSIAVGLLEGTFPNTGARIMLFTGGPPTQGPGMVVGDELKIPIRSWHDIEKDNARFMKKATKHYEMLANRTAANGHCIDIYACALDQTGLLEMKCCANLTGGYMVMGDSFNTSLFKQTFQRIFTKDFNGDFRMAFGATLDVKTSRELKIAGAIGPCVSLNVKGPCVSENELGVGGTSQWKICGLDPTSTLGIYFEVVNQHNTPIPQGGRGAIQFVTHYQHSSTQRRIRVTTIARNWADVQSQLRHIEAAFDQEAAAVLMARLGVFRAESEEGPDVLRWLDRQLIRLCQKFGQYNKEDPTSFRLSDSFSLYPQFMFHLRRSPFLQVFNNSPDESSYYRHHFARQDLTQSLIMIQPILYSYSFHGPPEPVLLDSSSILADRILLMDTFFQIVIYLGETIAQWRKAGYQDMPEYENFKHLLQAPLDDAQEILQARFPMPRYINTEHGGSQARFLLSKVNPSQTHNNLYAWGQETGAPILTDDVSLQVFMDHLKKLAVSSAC

Question: With RTF1 (UniProt Q92541) as the target, how does the “dose-dependent thermal stabilisation call” value read?
Answer: Its value is inactive: 0.

Question: How did the “dose-dependent thermal stabilisation call” value turn out when RFXANK (UniProt O14593) was run?
Answer: The value was inactive: 0.

Question: How did the “dose-dependent thermal stabilisation call” value turn out when SCYL1 (UniProt Q96KG9) was run?
Answer: The value was inactive: 0.

Question: How did the “dose-dependent thermal stabilisation call” value turn out when RPL19 (UniProt P84098) was run?
Answer: Its value is inactive: 0.

Question: With RPL37 (UniProt P61927) as the target, how does the “dose-dependent thermal stabilisation call” value read?
Answer: Its value is inactive: 0.

Question: RIPK1 (UniProt Q13546) was tested. Which “dose-dependent thermal stabilisation call” value did it give?
Answer: The value was inactive: 0.

Question: How did the “dose-dependent thermal stabilisation call” value turn out when SERF2 (UniProt P84101) was run?
Answer: The value was inactive: 0.

Question: Which “dose-dependent thermal stabilisation call” value does the source give for SAFB2 (UniProt Q14151) here?
Answer: The value was inactive: 0.

Question: How did the “dose-dependent thermal stabilisation call” value turn out when RPL22 (UniProt P35268) was run?
Answer: Its value is inactive: 0.

Question: For SEC23A (UniProt Q15436), which “dose-dependent thermal stabilisation call” value is on record?
Answer: The value was active: 1.

Question: For RNF7 (UniProt Q9UBF6), which “dose-dependent thermal stabilisation call” value is on record?
Answer: Its value is inactive: 0.

Question: How did the “dose-dependent thermal stabilisation call” value turn out when SF3B5 (UniProt Q9BWJ5) was run?
Answer: The value was inactive: 0.

Question: For RSBN1L (UniProt Q6PCB5), which “dose-dependent thermal stabilisation call” value is on record?
Answer: Its value is inactive: 0.

Question: RSU1 (UniProt Q15404) was tested. Which “dose-dependent thermal stabilisation call” value did it give?
Answer: Its value is inactive: 0.

Question: With SAP30BP (UniProt Q9UHR5) as the target, how does the “dose-dependent thermal stabilisation call” value read?
Answer: The value was inactive: 0.

Question: With SCRN1 (UniProt Q12765) as the target, how does the “dose-dependent thermal stabilisation call” value read?
Answer: Its value is inactive: 0.

Question: For RNF123 (UniProt Q5XPI4), which “dose-dependent thermal stabilisation call” value is on record?
Answer: The value was active: 1.

Question: RPL27A (UniProt P46776) was tested. Which “dose-dependent thermal stabilisation call” value did it give?
Answer: The value was inactive: 0.

Question: RNF126 (UniProt Q9BV68) was tested. Which “dose-dependent thermal stabilisation call” value did it give?
Answer: The value was inactive: 0.

Question: For RPS20 (UniProt P60866), which “dose-dependent thermal stabilisation call” value is on record?
Answer: Its value is inactive: 0.

Question: Which “dose-dependent thermal stabilisation call” value does the source give for SEPSECS (UniProt Q9HD40) here?
Answer: The value was inactive: 0.

Question: How did the “dose-dependent thermal stabilisation call” value turn out when RMDN1 (UniProt Q96DB5) was run?
Answer: Its value is inactive: 0.

Question: With RPS21 (UniProt P63220) as the target, how does the “dose-dependent thermal stabilisation call” value read?
Answer: The value was inactive: 0.

Question: How did the “dose-dependent thermal stabilisation call” value turn out when SEPTIN6 (UniProt Q14141) was run?
Answer: Its value is active: 1.

Question: Which “dose-dependent thermal stabilisation call” value does the source give for SEC23B (UniProt Q15437) here?
Answer: The value was inactive: 0.

Question: RPL23A (UniProt P62750) was tested. Which “dose-dependent thermal stabilisation call” value did it give?
Answer: Its value is inactive: 0.

Question: Which “dose-dependent thermal stabilisation call” value does the source give for RIOK1 (UniProt Q9BRS2) here?
Answer: The value was active: 1.

Source: the supplement of paper PMC7666118
